Data from patent US12173349B2, “Lung protease nanosensors and uses thereof” (Massachusetts Institute of Technology, priority 2018, dated 2024).
At least one structure is not confirmed: it was looked up by name or label, or the drawing left a doubt.

Test system: P. aeruginosa strain PA01 lung infection
Test: histology and immunofluorescence of lung sections after antibiotic treatment
Type: in vivo, mice
Conditions: 24 hours post-infection, after 19 hours of antibiotic therapy
Experimental: To test whether inflammation remained after antibiotic therapy, histological and immunofluorescence analysis of lung sections were performed from infected and treated mice. […] The robust diagnostic capability of ELA to identify infection but poor ability to monitor treatment, paired with the robust ability for LAS to specifically monitor treatment highlights the importance of multiplexing and measuring both host and pathogen factors.
Individual responses to antimicrobial treatment can be highly variable, dependent upon the strain of pathogen and the presence of antibiotic resistance, and current clinical tests take 24-72 hours to identify antibiotic susceptibility (Caliendo et al., Clin Infect Dis, 57, S139, 2013). […] Therefore, the ability of the infection-tracking ABNs to identify successful versus insufficient treatment on an acute time-scale shortly after therapeutic initiation was sought to be evaluated. […] Alternatively, the reduced LAS sensor reading in these treated mice could reflect a suppression of LasA secretion from bacteria as they are killed by the potent antibiotic. […]
Animals were perfused with PBS followed by 10% formalin solution. […] Fluorescence images were acquired on a Perkin Elmer Pannoramic250. Quantification of neutrophil signal was completed by capturing 3-5 representative fields from each stained lung section and counting positive cells. […]

C[C@H]1c2cccc(O)c2C(=O)C2=C(O)[C@]3(O)C(=O)C(C(N)=O)=C(O)[C@@H](N(C)C)[C@@H]3[C@@H](O)[C@@H]21 [doxycycline]
lung inflammation and neutrophils: marked lung inflammation and elevated neutrophils
